No constants are given. Whether binding was seen depends on the method and setting. Binding can be weak; no strength is given.
B1: SmDia clone ID1 (domain or fragment, UniProt C0MP97 402-1067)
chain: NDGVDPDPHMNILRLDVESTVALLVDALKEADASTRVEELQAKLDAALQAKLEAEAKVQTLQSHLSSGDRSTIKLTPDILPPPSLSSSIPPPPGIPPPPPMEGVPPPPPPPPPPPPPPMGGIPPPPPPMGSIPPPPPPMGGVPPPPPGFQSSKPPDELPFGMKPKKKYTLDVPMKKANWEKIKPNMLDKDSVWVQLHEDELEYGDLLKNLSAQFSTKPAKVMVSDSTSDGAAAAGNLQGIQSRKTKKLRYLDDKVAQNLSILLGSLKVPYDELRRRILTVDESLLTPNMLEQLVKALPEPSVISKISSLKDEYEALAEPEQFVCKVSDIKKLIPRLNSILFKMKFNEKLSEVKPEIVDVDEALQEIHFSKHFKRILELVLLLGNYMNAGSRNAEAIGFEISFLTKLEATKDVSNSQTLLHFLIGSLDRKFPETVKGFLDDFSHVERACRVSEDSLKANIAEMKKSVSNIDTDLKTYKAQEPNDNYIPVMQDFLVSAKEQLSQLEMMHKRMQDKFVTVSKYLAFDPNKYHMENLFSDLKDFHVAFKRSASDLAKKHALEEKMKKARDEQARRQREREDKAILNSSGPRAPTEEEGNVIDNLMEALKSGAAFANRGERSAVRRNRNRVSPAAANLASVASPSAIRQRQLMRARSRNYGDLPRSVVDVA
B2: SmDia clone ID2 (domain or fragment, UniProt C0MP97 432-1067)
chain: ADASTRVEELQAKLDAALQAKLEAEAKVQTLQSHLSSGDRSTIKLTPDILPPPSLSSSIPPPPGIPPPPPMEGVPPPPPPPPPPPPPPMGGIPPPPPPMGSIPPPPPPMGGVPPPPPGFQSSKPPDELPFGMKPKKKYTLDVPMKKANWEKIKPNMLDKDSVWVQLHEDELEYGDLLKNLSAQFSTKPAKVMVSDSTSDGAAAAGNLQGIQSRKTKKLRYLDDKVAQNLSILLGSLKVPYDELRRRILTVDESLLTPNMLEQLVKALPEPSVISKISSLKDEYEALAEPEQFVCKVSDIKKLIPRLNSILFKMKFNEKLSEVKPEIVDVDEALQEIHFSKHFKRILELVLLLGNYMNAGSRNAEAIGFEISFLTKLEATKDVSNSQTLLHFLIGSLDRKFPETVKGFLDDFSHVERACRVSEDSLKANIAEMKKSVSNIDTDLKTYKAQEPNDNYIPVMQDFLVSAKEQLSQLEMMHKRMQDKFVTVSKYLAFDPNKYHMENLFSDLKDFHVAFKRSASDLAKKHALEEKMKKARDEQARRQREREDKAILNSSGPRAPTEEEGNVIDNLMEALKSGAAFANRGERSAVRRNRNRVSPAAANLASVASPSAIRQRQLMRARSRNYGDLPRSVVDVA

Biological target: TK3-SH3 (SH3 domain of SmTK3) (Schistosoma mansoni)
Assay: two-hybrid; comparative liquid β-Gal assay (ONPG) of AH109 cells retransformed with prey clone and bait TK3-SH3 or TK3-US-SH3; relative binding strength, n = 6

Binder | binding
B1 | binds
B2 | binds

From publication PMC2734992
